Data on 60 molecules can be found in publication PMC12670160, “A drug-repurposing screen of FDA- and EMA-approved drugs identifies two NF-κB inhibitors active against eumycetoma” (Journal of Antimicrobial Chemotherapy, 2025).

Structures can show the parent of a compound that is named as a salt. The campaign covered roughly 5,300 compounds. About 130 (2.5%) showed an effect of 50% or more. The list shows a part of the results.

This assay concerns M. mycetomatis strain mm55. Conditions: primary screen, metabolic activity vs growth control; 96 h, 2 µM; inhibitor.
As to `CCC1=C[C@@H]2CN3CCc4c([nH]c5ccccc45)[C@@](C(=O)OC)(C2)[C@@H]13` [ONC0004820, catharanthine], the “% viability” value is reported as 91.81%. Next, `O=C(Nc1cccnc1)c1cc(-c2ccnc(F)c2)ccc1OCc1ccccc1` [ONC0004418, gsk2578215a]: 78.41%. The result for `CC(C)(O)C(=O)N1CCN(c2ccc(C(F)(F)F)c(C3=C(c4c[nH]c5ccccc45)C(=O)NC3=O)c2)CC1` [ONC0002496, tcs21311] reads 71.12%; that for `COC(=O)C1=C(C)NC(C)=C(C(=O)OC(C)(C)CN(C)CCC(c2ccccc2)c2ccccc2)C1c1cccc([N+](=O)[O-])c1` (stereo not drawn) [ONC0005438, lercanidipine], 120.1%; that for `C[C@]12CCC(=O)C=C1CC[C@@H]1[C@@H]2CC[C@@]2(C)[C@H]1CC[C@]2(O)C(=O)CO` [ONC0002192, cortodoxone], 74.08%. Next, `Cc1ccc(S(=O)(=O)NCc2ccccc2)cc1` [ONC0000132, bts]: 89.06%; `CCC1(c2ccccc2)C(=O)NCNC1=O` [ONC0000499, primidone]: 68.11%. For the molecule `COc1cc(-c2ccc(/N=N/c3ccc4c(S(=O)(=O)O)cc(S(=O)(=O)O)c(N)c4c3O)c(OC)c2)ccc1/N=N/c1ccc2c(S(=O)(=O)O)cc(S(=O)(=O)O)c(N)c2c1O` [ONC0002750, chicagoskyblue6b], the “% viability” value is recorded as 94.85%. The result for `CN/C(=N/CCSCc1nc[nH]c1C)NC#N` [ONC0000657, cimetidine] reads 137.7%; that for `CCCCc1oc2ccc(NS(C)(=O)=O)cc2c1C(=O)c1ccc(OCCCN(CCCC)CCCC)cc1` [ONC0004606, dronedarone hcl multaq], 82.39%.

Take `CC(C)(N)CC12CC3CC(CC(C3)C1)C2` [ONC0004056, somantadine]: the “% viability” value stood at 120.7%. With `COc1cc(Nc2c(C#N)cnc3cc(OCCCN4CCN(C)CC4)c(OC)cc23)c(Cl)cc1Cl` [ONC0000059, bosutinib], the “% viability” value is on record as 126.5%. As to `CC(C)Oc1ccc(-c2nn([C@@H](C)c3oc4ccc(F)cc4c(=O)c3-c3cccc(F)c3)c3ncnc(N)c23)cc1F` [ONC0001037, umbralisib], the “% viability” value is given as 81.81%. Take `O=C(CCc1ccc(O)cc1)c1c(O)cc(O)cc1O[C@@H]1O[C@H](CO)[C@@H](O)[C@H](O)[C@@H]1O` [ONC0005253, phlorizin phloridzin]: the “% viability” value is on record as 154.3%. Take `Cn1cc[nH]c1=S` [ONC0000508, methimazole]: the “% viability” value amounted to 57.54%.

On to `Nc1ncnc2[nH]nc(Nc3ccc(F)cc3)c12` [ONC0001374, cgp57380], for which the “% viability” value turned out to be 128.9%. As for `CCOC(=O)[C@H]1O[C@@H]1C(=O)N[C@@H](CC(C)C)C(=O)NCCC(C)C` [ONC0000354, aloxistatin], the “% viability” value is 61.2%. Next, `CCCCCCCCCCCCCCCC[N+](C)(C)Cc1ccccc1` [ONC0003644, benzyldimethylhexadecylammonium chloride hydrate]: 69.71%; `CN1CC[C@@]2(C)c3cc(O)ccc3N(C)[C@@H]12` [ONC0002771, eseroline]: 104.2%. `COc1ccc2[nH]c(SCc3ncc(C)c(OC)c3C)nc2c1` [ONC0003373, omeprazole sulphide]: the “% viability” value is reported as 64.17%. With `Oc1c(CN2CCCC2)cc(COCc2ccccc2)c2cccnc12` [ONC0003065, uc112], the “% viability” value is 68.61%. The result for `CCOC(=O)C(=O)Nc1cccc(OC)c1C(N)=O` [ONC0002163, wy16922] reads 57.24%; that for `O=S1(=O)N[C@H]2CCCN2c2ccccc21` [ONC0003477, s 18986], 56.01%. On to `O=C(O)CC(S)C(=O)O` (stereo not drawn) [ONC0003768, mercaptosuccinicacid], for which the “% viability” value came to 114.3%.

In the case of `Oc1cc2c(cc1O)C(c1ccccc1)CNCC2` (stereo not drawn) [ONC0000005, skf38393], the “% viability” value came out at 91.13%. On to `CN(C)C/C=C/C(=O)Nc1cccc(C(=O)Nc2cccc(Nc3ncc(Cl)c(-c4c[nH]c5ccccc45)n3)c2)c1` [ONC0002061, thz2], for which the “% viability” value amounted to 66.57%.

On to `Cn1c(=O)c2c(ncn2CC2OCCO2)n(C)c1=O` [ONC0002817, doxofylline], for which the “% viability” value was determined as 69.69%. Next, `O=C(NCCCN1CCOCC1)c1cnn2c(-c3ccccc3)cc(-c3ccccc3)nc12` [ONC0001702, reversan]: 75.13%. The result for `O=C1N=C2NN=CC2C(=O)N1` (stereo not drawn) [ONC0003735, oxypurinol] reads 101.2%; that for `CC1(C)[C@H]2CC[C@]1(C)[C@@H](O)[C@H]2O` [ONC0002184, cisexocamphanediol23], 85.44%; that for `Cc1cc(=O)n(-c2ccccc2)[nH]1` [ONC0002190, ndemethylantipyrine], 84.29%.

Take `Cc1cc(/C=c2/sc3nc4ccccc4n3c2=O)c(C)n1-c1ccccc1` [ONC0005457, itx3]: the “% viability” value worked out at 65.92%. For the molecule `CC(=O)N(CC(O)CO)c1c(I)c(C(=O)NCC(O)CO)c(I)c(C(=O)NCC(O)CO)c1I` (stereo not drawn) [ONC0004075, iohexol], the “% viability” value is 97.24%. Next, `CN1CCN(CC(=O)N2c3ccccc3C(=O)Nc3cccnc32)CC1` [ONC0000621, pirenzepine hydrochloride]: 101.3%; `CC(=O)N(CC(O)CO)c1c(I)c(C(=O)NCCO)c(I)c(C(=O)NCC(O)CO)c1I` (stereo not drawn) [ONC0002383, ioxilan]: 101.2%.

For `CC(C)NC[C@@H](C(=O)N1CCN(c2ncnc3c2[C@H](C)C[C@H]3O)CC1)c1ccc(Cl)cc1` [ONC0005076, ipatasertib gdc0068], the “% viability” value is given as 92.24%. The result for `Cc1ccc([C@@H]2O[C@H](CO)[C@@H](O)[C@H](O)[C@H]2O)cc1Cc1ccc(-c2ccc(F)cc2)s1` [ONC0005488, canagliflozin] reads 88.75%; that for `Cc1cc2nc3c(=O)[nH]c(=O)nc-3n(C[C@H](O)[C@H](O)[C@H](O)COP(=O)(O)O)c2cc1C` [ONC0003993, riboflavin 5phosphate sodium], 59.1%. The result for `Cc1cc(Nc2ncnc3ccc(NC4=NC(C)(C)CO4)cc23)ccc1Oc1ccn2ncnc2c1` [ONC0002477, tucatinib] reads 65.33%. The result for `COc1ccc(S(=O)(=O)N2CCC[C@H]2C(=O)Nc2cc(C)cc(C)c2)cc1` [ONC0003585, act462206] reads 65.92%; that for `Cc1cccc(Oc2nc3c(C)cccn3c(=O)c2/C=C(\C#N)c2nc3ccccc3s2)c1` [ONC0001281, ccg63802], 68.65%; that for `OCC(CO)N[C@H]1C[C@](O)(CO)[C@@H](O)[C@H](O)[C@H]1O` [ONC0002570, voglibose], 62.37%. In the case of `CCOC(CN1CCN(CC(C)C(=O)c2ccccc2)CC1)c1ccccc1` (stereo not drawn) [ONC0005195, eprazinone 2hcl], the “% viability” value came to 128%.

With `CC(C)=CCC[C@](C)(O[C@@H]1O[C@H](CO)[C@@H](O)[C@H](O)[C@H]1O)[C@H]1CC[C@]2(C)[C@@H]1[C@H](O)C[C@@H]1[C@@]3(C)CC[C@H](O[C@@H]4O[C@H](CO)[C@@H](O)[C@H](O)[C@H]4O[C@@H]4O[C@H](CO)[C@@H](O)[C@H](O)[C@H]4O)C(C)(C)[C@@H]3CC[C@]12C` [ONC0001990, ginsenoside rd], the “% viability” value was determined as 112.3%. The result for `C=CCNc1ncnc2ccc(Br)cc12` [ONC0001746, smer28] reads 58.41%; that for `OC(CCN1CCCCC1)(c1ccccc1)c1ccccc1` [ONC0002866, pridinol methanesulfonate], 103.1%.

On to `COc1cc(Nc2ncc3c(n2)-c2ccc(Cl)cc2C(c2c(F)cccc2OC)=NC3)ccc1C(=O)O` [ONC0004637, mln8237 alisertib], for which the “% viability” value was found to be 72.25%. The result for `Cc1c(Cl)c(C)[n+]([O-])c(Cl)c1-c1noc(-c2cc(O)c(O)c([N+](=O)[O-])c2)n1` [ONC0001007, opicapone] reads 81.76%; that for `CCN(CC)CCNC(=O)c1ccccc1I` [ONC0003631, n2diethylaminoethyl2iodobenzamide hydrochloride], 51.76%. As for `CC(C)=CCC/C(C)=C/CC/C(C)=C/CSc1ccccc1C(N)=O` [ONC0003299, farnesylthiosalicylicacidamide], the “% viability” value came to 80.95%. The result for `CCCCC(=O)N(Cc1ccc(-c2ccccc2-c2nnn[nH]2)cc1)[C@H](C(=O)O)C(C)C` [ONC0004292, valsartan] reads 83.45%; that for `COC(=O)[C@@H](N)CCCNC(=N)N[N+](=O)[O-]` [ONC0003037, lname], 84.29%; that for `CCN(CC)CCNC(=O)c1cc(Br)c(N)cc1OC` [ONC0002898, bromopride], 60.58%. Next, `CCc1ccc(/C=C2/SC(=S)NC2=O)cc1` [ONC0004460, 10058f4]: 118.8%; `CCOC(N)=O` [ONC0003133, urethane]: 74.39%; `Nc1ncccc1-c1nc2ccc(-c3ccccc3)nc2n1-c1ccc(C2(N)CCC2)cc1` [ONC0001390, miransertib]: 101.4%. Next, `O=C(O)C1CN(CCCP(=O)(O)O)CCN1` (stereo not drawn) [ONC0001562, cpp]: 88.98%; `O=C1Nc2ccccc2C2(CCN(CCc3ccc(C(F)(F)F)cc3)CC2)O1` [ONC0000109, rs102895]: 92.35%; `O=c1cc(N2CCOCC2)oc2c(-c3ccccc3)cccc12` [ONC0002636, ly294002]: 84.16%.

Take `Cc1cc(C)c(NC(=O)N(Cc2ccc3c(c2)Cc2ccccc2-3)C2CCCCCC2)c(C)c1` [ONC0000194, ym750]: the “% viability” value came out at 45.17%.
